Binding data for six molecules are collected here from patent US20250206813A1 (NVH MEDICINAL, published 2025).

These are yes or no findings as the source states them, for the method shown. Some entries that bind do so weakly or less than the wild type.

Assay [1] addresses T1, CUB1 domain of PCPE-1 (human, UniProt Q15113 37-149).
T1 construct: domain: CUB1
T1 sequence (looked up): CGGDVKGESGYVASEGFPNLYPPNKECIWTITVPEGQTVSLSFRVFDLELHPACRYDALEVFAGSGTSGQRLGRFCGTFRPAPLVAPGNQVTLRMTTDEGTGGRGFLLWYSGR
The experiment in a line: SPR competition: VHH (50 nM) co-injected with CUB1 (250 nM) on immobilized PCPE-1.

In assay [2] the target is T1, CUB1 domain of PCPE-1. The experiment in a line: SPR competition: VHH (50 nM) co-injected with the soluble CUB1 domain (250 nM) over immobilized PCPE-1.
For assay [3], the target named is T2, CUB2 domain of PCPE-1 (human, UniProt Q15113 159-273).
T2 construct: domain: CUB2
T2 sequence (looked up): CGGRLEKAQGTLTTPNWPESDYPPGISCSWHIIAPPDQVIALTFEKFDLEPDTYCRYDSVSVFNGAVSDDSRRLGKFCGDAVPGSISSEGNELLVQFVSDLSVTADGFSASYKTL
The experiment in a line: SPR competition: VHH (50 nM) co-injected with CUB2 (250 nM) on immobilized PCPE-1.

Assay [4] has as its target T2, CUB2 domain of PCPE-1. The experiment in a line: SPR competition: VHH (50 nM) co-injected with the soluble CUB2 domain (250 nM) over immobilized PCPE-1.
For assay [5], the target named is T3, PCPE-1 (Procollagen C-proteinase enhancer-1) glycoprotein, human (human) (UniProt Q15113).
T3 sequence (looked up): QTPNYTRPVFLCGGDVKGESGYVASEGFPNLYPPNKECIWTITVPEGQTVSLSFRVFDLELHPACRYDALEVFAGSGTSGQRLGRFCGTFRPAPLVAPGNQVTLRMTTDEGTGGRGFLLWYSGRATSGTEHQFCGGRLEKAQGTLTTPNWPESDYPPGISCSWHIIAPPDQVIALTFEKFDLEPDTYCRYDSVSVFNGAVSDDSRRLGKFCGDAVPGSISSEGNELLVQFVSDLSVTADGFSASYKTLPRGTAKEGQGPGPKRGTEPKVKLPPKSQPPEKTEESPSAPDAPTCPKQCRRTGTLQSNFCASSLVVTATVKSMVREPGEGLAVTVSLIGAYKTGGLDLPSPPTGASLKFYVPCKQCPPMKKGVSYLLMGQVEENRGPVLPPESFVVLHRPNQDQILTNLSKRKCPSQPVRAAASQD
The experiment in a line: SPR (Biacore T200), 200 nM VHH injected over immobilized PCPE-1 (645 RU). A general note: In SPR one partner is held on a chip, and binding of the other changes the refractive index at the surface.

The target in assay [6] is T3, PCPE-1 (Procollagen C-proteinase enhancer-1) glycoprotein, human (human). Nature of the assay: SPR, VHH injected on immobilized PCPE-1.

B1: VHH-H10 (VHH)
VHH: EVQLQASGGGFVQPGGSLRLSCAASGYGWWIYEMGWFRQAPGKEREFVSAISWADGTRTYYADSVKGRFTISRDNSKNTVYLQMNSLRAEDTATYYCAIYILEGTQGVPIYWGQGTQVTVSS
notes: Synthetic nanobody (hsd2ab library), pET29b(+) vector, pelB signal; not shown: C-terminal 6-His tag
For the molecule B1, the binding entry with CUB1 domain of PCPE-1 [1] and with CUB1 domain of PCPE-1 [2] was “binds” each time.

B2: VHH-I5 (VHH)
VHH: QVQLVESGGGLVQPGGFLRLLCTASGNIFSSNTMGWYRRAPGKQREWVASISKGGSTNYADSVKDRFTISRSITKNTVYLQMVNLKPEDTAVYYCNPVPDSDNYASGQGTQVTVSS
notes: Llama nanobody, pHEN6 vector, pelB signal, produced in E. coli periplasm; also called nanobody-I5; 15; not shown: C-terminal 6-His tag
Regarding B2, the binding entry with CUB2 domain of PCPE-1 [3] and with CUB2 domain of PCPE-1 [4] was “binds” in each case.

B3: VHH-I7 (VHH)
VHH: QVQLVESGGGLVPPGGSLKLSCTASGSIFSSNVMGWYRRAPGKQREWVASISRGGGTNYPDSVKGRFTVSRDIAKNTVYLQISSLKPEDTAVYYCNPIPYSGDYVSGQGTQVTVSS
notes: Llama nanobody, pHEN6 vector, pelB signal, produced in E. coli periplasm; also called nanobody I7; 17; not shown: C-terminal 6-His tag
As for B3, the binding entry with CUB2 domain of PCPE-1 [3] and with CUB2 domain of PCPE-1 [4] was “binds” throughout.

B4: VHH-H4 (VHH)
VHH: EVQLQASGGGFVQPGGSLRLSCAASGFTSEISNMGWFRQAPGKEREFVSAISGTHTTQTYYADSVKGRFTISRDNSKNTVYLQMNSLRAEDTATYYCAAEQDMSDLWLGSYWGQGTQVTVSS
notes: Synthetic nanobody (hsd2ab library), pET29b(+) vector, pelB signal; also called nanobody-H4; not shown: C-terminal 6-His tag
For the molecule B4, the binding result with CUB1 domain of PCPE-1 [1] and in the assay with CUB1 domain of PCPE-1 [2] was “binds” in each case.

B5: VHH-I10 (VHH, not shown: small tags and cut ends)
VHH: QVQLVESGGGLVQPGGSLTLSCVISGTIFNDGSSVNAMNWYREAPGKGRVLIASLDSAGITKYADSVNGRFTISADNARETVTLQMNNLAPEDTAVYYCAATKVWNSWYATYGIDYWGKGTQVTVSS
With B5, the binding result in assay [5] and in assay [6] was “no binding (tested: 200 nM)” each time.

B6: VHH-I3 (VHH)
VHH: QVQLVESGGGLVEPGGSLRLSCAVSGSTFSMNVMGWYRQAPGKHREWVGSIGTGGGTNYPDSVKGRFTISRDNVKKTVYLQMNSLKPEDTAVYYCNKIPHNWGWGQGTQVTVSS
notes: Llama nanobody, pHEN6 vector, pelB signal, produced in E. coli periplasm; also called nanobody I3; 13; not shown: C-terminal 6-His tag
Take B6: the binding result with CUB2 domain of PCPE-1 [3] and with CUB2 domain of PCPE-1 [4] was “binds” throughout.
